Source: PubChem BioAssay AID1159584 (Peter MacCallum Cancer Centre, 2016)

Aim: 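Knock-downs that harm CDH1-null cells more than parental MCF10A cells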 (primary screen)
Cell system: human MCF10A breast epithelial cells, parental and CDH1-null
Reagent: siRNA against human genes
Measured: 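Cell viability by CellTiter-Glo ATP luminescence, each line scaled to the mean of mock wells across plates, then CDH1-null over parental ratio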
Direction: CDH1-null / parental viability ratio: higher = CDH1-null cells survive relatively better than parental
This is a random part of about 18,000 deposited reagents. The numbers tell different reagents against one gene apart. Not all columns of the deposit are shown. Not given: the amount of reagent, the time to read-out.

CDH1-null / parental viability ratio, by gene knocked down and reagent
CDC20: #1 0.93
CFHR2: #1 0.91
GOLM1: #1 1.16
HEXA: #1 0.91
KDELR2: #1 0.8
PUM1: #1 1.23
SNX29: #1 0.97; #2 1.06
GLIS2: #1 1.07
C18orf32: #1 1.14
PLPPR4: #1 1.39
ACAA1: #1 1.17
CSN3: #1 1.1
PLA2G12B: #1 0.86
CWF19L1: #1 1.03
PACS1: #1 0.73
MAPRE2: #1 1.11
GPANK1: #1 1.34
WNT8B: #1 0.98
OR13D1: #1 1.02
GAS2L3: #1 0.83
TBKBP1: #1 1.08
BMP10: #1 1.95
DSP: #1 1.06

Laid out differently: 10 of the entries above
gene knocked down	siRNA no.	CDH1-null / parental viability ratio
C18orf32	1	1.14
PLPPR4	1	1.39
ACAA1	1	1.17
CSN3	1	1.1
PLA2G12B	1	0.86
CWF19L1	1	1.03
PACS1	1	0.73
MAPRE2	1	1.11
GPANK1	1	1.34
WNT8B	1	0.98

The results go on:
CDH1-null / parental viability ratio, by gene knocked down and reagent
SLC5A10: #1 1.1
SAMHD1: #1 1.1
UPF2: #1 0.98
CCDC140: #1 0.94
TAOK3: #1 1
RAI14: #1 1.04
MNMIP1: #1 0.9
NBPF15: #1 1.02
CPLX4: #1 1.22
UBE2V1: #1 1.26
EHD4: #1 1.05
NEK7: #1 0.97
ZNF235: #1 0.95
RTL8C: #1 0.93
FLJ46838 (retired record): #1 1.2
CEACAM18: #1 1.12
LCTL: #1 0.86
CPNE5: #1 0.82
PDCL2: #1 1.04
HAO1: #1 0.95
USP13: #1 0.91
SLC2A7: #1 1.06
SRSF7: #1 1.06
FBXO27: #1 1
ZNF615: #1 1.22
CNOT1: #1 0.37
SASH1: #1 0.68
SAXO1: #1 0.96
CORO1A: #1 0.85
KCTD4: #1 1.19
CXCL2: #1 0.81
DAXX: #1 0.92
ARHGAP9: #1 0.89
SULT1A4: #1 1.12
FRMD1: #1 1.43
TLCD5: #1 0.8
MRPL12: #1 1.13
TAAR5: #1 1.19
PPIE: #1 0.76
CHMP3: #1 1.01
FIZ1: #1 1.14
PNISR: #1 1.09
EPHA1: #1 0.88
ATP8A1: #1 1.18
